No constants are given. Whether binding was seen depends on the method and setting. Binding seen in cells or lysates may run through a third protein. Here binding means that the protein was enriched with, or labelled near, the bait; the list need not be complete. Values belong to the binder of their own block, whether it stands above or below them.
Experiments:
Experiment in all cases: affinity purification with mass spectrometry
[1] = biological target: FLAG-SLC3A2 WTseq (human) (UniProt P08195)
[2] = biological target: FLAG-SLC3A2 A273N (human) (UniProt P08195)
[3] = biological target: FLAG-SLC3A2 A273N+D355N (human) (UniProt P08195)

Amino acid sequences for entries named in this document (tags omitted). A change or cut given only in a name is not applied to a line headed by its entry. Chains listed by the source or under a name are the forms on record and can include a tag or linker. Residues count along the entry.
FLAG-SLC3A2 WTseq (P08195, residues 66-630): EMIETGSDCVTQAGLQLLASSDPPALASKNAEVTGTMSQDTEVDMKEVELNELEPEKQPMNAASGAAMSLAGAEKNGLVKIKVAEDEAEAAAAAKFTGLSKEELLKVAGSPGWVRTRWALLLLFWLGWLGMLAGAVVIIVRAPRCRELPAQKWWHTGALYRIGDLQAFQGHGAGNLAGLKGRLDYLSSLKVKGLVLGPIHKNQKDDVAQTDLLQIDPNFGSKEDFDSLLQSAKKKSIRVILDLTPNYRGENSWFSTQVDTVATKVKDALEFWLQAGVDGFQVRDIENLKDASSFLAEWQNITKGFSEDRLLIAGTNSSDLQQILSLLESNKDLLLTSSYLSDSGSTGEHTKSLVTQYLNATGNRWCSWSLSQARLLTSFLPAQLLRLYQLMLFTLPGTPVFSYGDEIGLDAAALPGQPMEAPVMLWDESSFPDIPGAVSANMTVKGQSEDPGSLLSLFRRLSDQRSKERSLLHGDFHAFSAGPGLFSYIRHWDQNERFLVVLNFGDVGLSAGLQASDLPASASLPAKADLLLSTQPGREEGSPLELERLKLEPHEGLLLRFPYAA
FLAG-SLC3A2 A273N (P08195, form named): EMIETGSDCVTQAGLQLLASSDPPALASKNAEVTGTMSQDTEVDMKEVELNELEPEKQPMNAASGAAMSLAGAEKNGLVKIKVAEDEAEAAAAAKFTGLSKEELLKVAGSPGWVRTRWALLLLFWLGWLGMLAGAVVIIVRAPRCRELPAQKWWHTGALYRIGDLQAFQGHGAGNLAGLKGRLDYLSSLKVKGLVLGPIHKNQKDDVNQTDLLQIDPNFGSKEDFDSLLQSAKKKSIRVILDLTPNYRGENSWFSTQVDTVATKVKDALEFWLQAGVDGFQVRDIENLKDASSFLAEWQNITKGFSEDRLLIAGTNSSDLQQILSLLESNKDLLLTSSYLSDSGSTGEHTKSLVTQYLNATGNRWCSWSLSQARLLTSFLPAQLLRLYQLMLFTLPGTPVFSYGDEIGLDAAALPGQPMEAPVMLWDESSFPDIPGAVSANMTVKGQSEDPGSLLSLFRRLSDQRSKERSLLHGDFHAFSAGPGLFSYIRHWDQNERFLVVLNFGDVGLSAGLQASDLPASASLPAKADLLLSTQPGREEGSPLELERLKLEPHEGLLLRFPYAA
FLAG-SLC3A2 A273N+D355N (P08195, form named): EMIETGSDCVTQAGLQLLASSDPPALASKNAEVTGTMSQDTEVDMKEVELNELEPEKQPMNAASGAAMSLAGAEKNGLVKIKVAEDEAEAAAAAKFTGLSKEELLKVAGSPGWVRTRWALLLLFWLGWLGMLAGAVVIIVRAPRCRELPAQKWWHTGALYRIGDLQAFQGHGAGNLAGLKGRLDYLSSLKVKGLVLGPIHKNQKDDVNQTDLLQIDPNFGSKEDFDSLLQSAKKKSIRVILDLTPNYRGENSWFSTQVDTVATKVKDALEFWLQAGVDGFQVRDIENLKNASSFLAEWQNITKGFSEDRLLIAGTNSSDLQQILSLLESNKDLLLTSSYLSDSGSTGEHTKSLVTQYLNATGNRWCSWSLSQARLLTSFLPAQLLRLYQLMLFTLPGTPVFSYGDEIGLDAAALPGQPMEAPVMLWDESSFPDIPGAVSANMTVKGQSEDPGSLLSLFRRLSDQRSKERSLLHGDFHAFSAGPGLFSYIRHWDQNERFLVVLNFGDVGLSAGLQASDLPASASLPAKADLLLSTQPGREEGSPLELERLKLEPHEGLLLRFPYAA

- binding [1]: binds
- binding [2]: binds
B1: TMX3 (protein, UniProt Q96JJ7 25-454)
chain: KGFVEDLDESFKENRNDDIWLVDFYAPWCGHCKKLEPIWNEVGLEMKSIGSPVKVGKMDATSYSSIASEFGVRGYPTIKLLKGDLAYNYRGPRTKDDIIEFAHRVSGALIRPLPSQQMFEHMQKRHRVFFVYVGGESPLKEKYIDAASELIVYTYFFSASEEVVPEYVTLKEMPAVLVFKDETYFVYDEYEDGDLSSWINRERFQNYLAMDGFLLYELGDTGKLVALAVIDEKNTSVEHTRLKSIIQEVARDYRDLFHRDFQFGHMDGNDYINTLLMDELTVPTVVVLNTSNQQYFLLDRQIKNVEDMVQFINNILDGTVEAQGGDSILQRLKRIVFDAKSTIVSIFKSSPLMGCFLFGLPLGVISIMCYGIYTADTDGGYIEERYEVSKSENENQEQIEESKEQQEPSSGGSVVPTVQEPKDVLEKKKD

- binding [1]: binds
- binding [3]: binds
- binding [2]: binds
B2: SLC39A1 (protein, UniProt Q9NY26 1-324)
chain: MGPWGEPELLVWRPEAVASEPPVPVGLEVKLGALVLLLVLTLLCSLVPICVLRRPGANHEGSASRQKALSLVSCFAGGVFLATCLLDLLPDYLAAIDEALAALHVTLQFPLQEFILAMGFFLVLVMEQITLAYKEQSGPSPLEETRALLGTVNGGPQHWHDGPGVPQASGAPATPSALRACVLVFSLALHSVFEGLAVGLQRDRARAMELCLALLLHKGILAVSLSLRLLQSHLRAQVVAGCGILFSCMTPLGIGLGAALAESAGPLHQLAQSVLEGMAAGTFLYITFLEILPQELASSEQRILKVILLLAGFALLTGLLFIQI

- binding [1]: binds
- binding [3]: binds
- binding [2]: binds
B3: SLC1A5 (protein, UniProt Q15758 1-541)
chain: MVADPPRDSKGLAAAEPTANGGLALASIEDQGAAAGGYCGSRDQVRRCLRANLLVLLTVVAVVAGVALGLGVSGAGGALALGPERLSAFVFPGELLLRLLRMIILPLVVCSLIGGAASLDPGALGRLGAWALLFFLVTTLLASALGVGLALALQPGAASAAINASVGAAGSAENAPSKEVLDSFLDLARNIFPSNLVSAAFRSYSTTYEERNITGTRVKVPVGQEVEGMNILGLVVFAIVFGVALRKLGPEGELLIRFFNSFNEATMVLVSWIMWYAPVGIMFLVAGKIVEMEDVGLLFARLGKYILCCLLGHAIHGLLVLPLIYFLFTRKNPYRFLWGIVTPLATAFGTSSSSATLPLMMKCVEENNGVAKHISRFILPIGATVNMDGAALFQCVAAVFIAQLSQQSLDFVKIITILVTATASSVGAAGIPAGGVLTLAIILEAVNLPVDHISLILAVDWLVDRSCTVLNVEGDALGAGLLQNYVDRTESRSTEPELIQVKSELPLDPLPVPTEEGNPLLKHYRGPAGDATVASEKESVM

- binding [1]: binds
- binding [3]: binds
- binding [2]: binds
B4: SLC38A2 (protein, UniProt Q96QD8 1-506)
chain: MKKAEMGRFSISPDEDSSSYSSNSDFNYSYPTKQAALKSHYADVDPENQNFLLESNLGKKKYETEFHPGTTSFGMSVFNLSNAIVGSGILGLSYAMANTGIALFIILLTFVSIFSLYSVHLLLKTANEGGSLLYEQLGYKAFGLVGKLAASGSITMQNIGAMSSYLFIVKYELPLVIQALTNIEDKTGLWYLNGNYLVLLVSLVVILPLSLFRNLGYLGYTSGLSLLCMVFFLIVVICKKFQVPCPVEAALIINETINTTLTQPTALVPALSHNVTENDSCRPHYFIFNSQTVYAVPILIFSFVCHPAVLPIYEELKDRSRRRMMNVSKISFFAMFLMYLLAALFGYLTFYEHVESELLHTYSSILGTDILLLIVRLAVLMAVTLTVPVVIFPIRSSVTHLLCASKDFSWWRHSLITVSILAFTNLLVIFVPTIRDIFGFIGASAASMLIFILPSAFYIKLVKKEPMKSVQKIGALFFLLSGVLVMTGSMALIVLDWVHNAPGGGH
